Experimental data: patent publication US12370168B2 (scPharmaceuticals Inc., priority 2013, dated 2025)
Like-named read-outs stand apart in the source and are kept apart here.

Tests used:
[1] = unbuffered, neutral and weakly alkaline solutions
[2] = 8 mg/mL, isosmotic, pH 7-8, short term exposure to light

## NS(=O)(=O)c1cc(C(=O)O)c(NCc2ccco2)cc1Cl [Furosemide, 4-chloro-2-(furan-2-ylmethylamino)-5-sulfamoyl-benzoic acid]
[1]
  rate of dissolution: quite slow
[2]; 25 mM Tris
  visual inspection after light exposure: dark brown colored solution
[2]; 50 mM Tris
  visual inspection after light exposure: progressively lighter shades of brown
[2]; 100 mM Tris
  visual inspection after light exposure: progressively lighter shades of brown
